Reference: paper PMC7944388
No constants are given. Whether binding was seen depends on the method and setting. Binding seen in cells or lysates may run through a third protein. A yes stands for co-enrichment or nearness to the bait. Other partners may have been found.

By UniProt entry, the sequences of proteins in these tests, tags left out. Residues count along the entry.
UniProt P09103, residues 20-509: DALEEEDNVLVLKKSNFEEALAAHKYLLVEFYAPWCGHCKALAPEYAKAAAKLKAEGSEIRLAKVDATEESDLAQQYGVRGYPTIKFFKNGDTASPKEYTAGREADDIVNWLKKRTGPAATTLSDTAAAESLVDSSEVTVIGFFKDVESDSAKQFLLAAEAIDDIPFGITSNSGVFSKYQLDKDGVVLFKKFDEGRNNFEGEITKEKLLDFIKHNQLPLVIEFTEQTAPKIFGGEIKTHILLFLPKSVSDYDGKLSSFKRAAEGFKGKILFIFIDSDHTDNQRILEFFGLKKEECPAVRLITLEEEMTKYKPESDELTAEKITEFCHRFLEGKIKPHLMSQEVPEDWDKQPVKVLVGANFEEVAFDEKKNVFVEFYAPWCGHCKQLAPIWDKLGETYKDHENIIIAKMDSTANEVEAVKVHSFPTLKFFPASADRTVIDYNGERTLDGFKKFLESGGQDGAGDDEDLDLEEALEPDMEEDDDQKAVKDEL

Target: prolyl 4-hydroxylase subunit beta (P4HB), endogenous (mouse (endogenous in GA muscle and C2C12)) (UniProt P09103)
Experiment: affinity purification with mass spectrometry; proteins extracted from GA muscle of YES2-bearing mice, Protein A/G Sepharose beads with anti-P4HB antibody, SDS-PAGE, silver staining, differential band by LC-MS/MS

binding: binds
B1: phosphoglycerate dehydrogenase (PHGDH), endogenous (protein, UniProt Q61753 1-533)
chain: MAFANLRKVLISDSLDPCCRKILQDGGLQVVEKQNLSKEELIAELQDCEGLIVRSATKVTADVINAAEKLQVVGRAGTGVDNVDLEAATRKGILVMNTPNGNSLSAAELTCGMIMCLARQIPQATASMKDGKWDRKKFMGTELNGKTLGILGLGRIGREVATRMQSFGMKTVGYDPIISPEVAASFGVQQLPLEEIWPLCDFITVHTPLLPSTTGLLNDSTFAQCKKGVRVVNCARGGIVDEGALLRALQSGQCAGAALDVFTEEPPRDRALVDHENVISCPHLGASTKEAQSRCGEEIAVQFVDMVKGKSLTGVVNAQALTSAFSPHTKPWIGLAEAMGTLMHAWAGSPKGTIQVVTQGTSLKNAGTCLSPAVIVGLLREASKQADVNLVNAKLLVKEAGLNVTTSHNPGVPGEQGSGECLLTVALAGAPYQAVGLVQGTTPMLQMLNGAVFRPEVPLRRGQPLLVFRAQPSDPGMLPTMIGLLAEAGVQLLSYQTSMVSDGEPWHVMGLSSLLPSLETWKQHVLEAFQFCF
